Laboratory results reported in patent US20130189690A1, “SCN5A Splice Variants for Use in Methods Relating to Sudden Cardiac Death and Need for Implanted Cardiac Defibrillators” (The United States Government as represented by the …, priority 2011, published 2013).
Not every detail of the peptide structures is certain; ends, links or a residue may be inferred.

Legend:
SCN5A variant E28C = SCN5A variant E28C expression by qPCR in Jurkat cells; type: cell-based, human; settings: Ang II 200 nmol/L, 48 h
LUC7L3 [1] = experiment: LUC7L3 expression by qPCR in Jurkat cells; type: cell-based, human; settings: Ang II 200 nmol/L, 48 h
[2] = test system: NF-κB binding to the scn5a promoter; experiment: Electrophoretic mobility shift assay with H9c2 nuclear extracts; type: cell-based, rat; settings: 48 h AngII or H2O2
Text: Approximately 5×10^6 cells were scraped for nuclear protein extraction by nuclear extract kit (Activemotif, Carlsbad, Calif.). A double-stranded oligonucleotide containing the consensus-binding sequence (bold) for […] ID NO. 657)) and NF-κB mutant sequence ([NT] ID NO. 658)) from scn5a promoter were used as probes to assay for binding activity of the nuclear extracts. Protein-DNA complexes were detected using biotin end-labeled double-stranded DNA probes prepared by annealing complementary oligonucleotides. Oligonucleotides were labeled in a reaction using terminal deoxynucleotide transferase and biotin-N4-CTP (Pierce, Rockford, Ill.) following the biotin 3' end DNA labeling kit manual. The binding reaction was performed using the LightShift kit (Pierce). […] Following electrophoresis, the DNA-protein complexes were transferred onto nylon membranes and detected using chemiluminescence. TNF-α activated H9c2 cell nuclear extract (5 μg) was used as positive control. The reaction products were separated on a 6% retardation gel.

[3] = test system: full length SCN5A transcript; experiment: Full length SCN5A transcript expression by qPCR in Jurkat cells; type: cell-based, human; settings: Ang II 200 nmol/L, 48 h
sXBP1 = sXBP1 expression by RT-PCR in Jurkat cells; type: cell-based, human; settings: Ang II-treated, 48 h
scn5a promoter = experiment: scn5a promoter-reporter (dual luciferase) assay in H9c2 cells; type: cell-based, rat
Protocol: The scn5a promoter region has previously been defined (Shang, L. L. & Dudley, S. C., Jr. (2005) J. Biol. Chem. 280, 933-940). For these experiments, a new promoter construct that contained the NF-κB consensus binding site was used to test the effect of treatments on scn5a transcription. This construct, pGL3-APS3, consisted of a 937 bp fragment starting from exon 1C to +32 base pairs relative to the start codon located on exon 2 of mouse scn5a gene.
H9c2 cardiomyocytes were plated in each well of 24-well plates at a density of 2.5×10^4 cells in a final volume of 1 mL of culture medium, allowed to attach overnight, and expand to 70%-80% confluence. Transfection of 0.3 μg of the promoter-reporter construct and 0.013 μg of a plasmid containing the herpes simplex virus thymidine kinase (HSV-TK) promoter driving expression of a synthetic Renilla luciferase (phRL-TK; Promega, Madison, […].) was carried out with 0.9 μL of Fugene6 chemical transfection reagents (Roche, Indianapolis, Ind.) following the manufacturer's instructions. […] Light emission was quantified in a Veritas microplate luminometer using Veritas-version 1.4.0 software (Tuener Biosystems, Sunnyvale, Calif.). […] Four separate transfection sessions were analyzed, and at each session, transfections were performed in triplicate. Three dual luciferase readings were taken for each transfection experiment. […]

PERK [4] = experiment: PERK Western blot in Jurkat cells; type: cell-based, human; settings: Ang II-treated, vs control group
LUC7L3 [5] = experiment: LUC7L3 Western blot quantification in Jurkat cells; type: cell-based, human; settings: Ang II 200 nmol/L
Na+ channel currents = experiment: Whole-cell voltage-clamp Na+ channel currents in hESC-CMs; type: cell-based, human; settings: Ang II 200 nmol/L, 24 h, at −30 mV
RBM25 [6] = experiment: RBM25 Western blot quantification in Jurkat cells; type: cell-based, human; settings: Ang II 200 nmol/L
[7] = test system: cardiac sodium channel (scn5a) mRNA; experiment: scn5a mRNA abundance by quantitative real-time RT-PCR in neonatal cardiomyocytes; type: cell-based, rat; settings: 2 nM AngII, 48 h
Text: (§1) The rat embryonic cardiomyocyte cell line, H9c2 (ATCC cat #CRL-1446), or acutely isolated neonatal rat heart cardiomyocytes were used. Rat neonatal ventricular cells were isolated from 3-day-old Sprague-Dawley rats (Charles River Laboratories Wilmington, Mass.) using a kit and following the manufacturer's instructions (Worthington Biochemical Corp. Lakewood, N.J.). Cells cultured in Dulbecco's modified Eagle's medium (DMEM; ATCC, Manassas, Va.) with 10% fetal calf serum (ATCC) under standard tissue culture conditions at 37° C. to 70-80% confluence were exposed to AngII (Sigma, St. Louis, Mo.) or H2O2 (Sigma) in serum free culture medium (SFM) for a total of 48 h in triplicate in 24 well plates. Experiments were repeated three times. After dissociation with 0.125% trypsin-EDTA, 20 μL of 0.4% Trypan-blue (Sigma, St. Louis, Mo.) was added to each well, and a Trypan-blue exclusion viability assay was performed. The use of rats conforms with the Guide for the Care and Use of Laboratory Animals published by the US National Institutes of Health (NIH Publication No. 85-23, revised 1996).
(§2) To determine the abundance of cardiac sodium channel (scn5a) mRNA under the various conditions, quantitative real-time RT-PCR was used. […] PCR products were analyzed by relative standard curve methods β-Actin was used as a reference when making quantitative comparison.

RBM25 [8] = experiment: RBM25 expression by qPCR in Jurkat cells; type: cell-based, human; settings: Ang II 200 nmol/L, 48 h
[9] = test system: cardiac sodium channel (scn5a) mRNA; experiment: scn5a mRNA abundance by quantitative real-time RT-PCR in H9c2 cells; type: cell-based, rat; settings: 100 nM AngII, 48 h
Text: as §1, §2

PERK [10] = experiment: PERK expression by RT-PCR in Jurkat cells; type: cell-based, human; settings: Ang II-treated, 48 h
[11] = test system: major UPR components (PERK, calnexin, CHOP); experiment: Expression of major UPR components in hESC-CMs; type: cell-based, human; settings: 100 nmol/L Ang II
SCN5A variant E28D = SCN5A variant E28D expression by qPCR in Jurkat cells; type: cell-based, human; settings: Ang II 200 nmol/L, 48 h
[12] = test system: NF-κB subunits p50 and p65 on the scn5a promoter; experiment: Chromatin immunoprecipitation (ChIP) assay in H9c2 cells; type: cell-based, rat; settings: H9c2, AngII or H2O2 treatment
Protocol: Formaldehyde cross-linking and chromatin immunoprecipitation was performed as described in manufactory's manual (ChIP-IT™ kit, Activemotif). Briefly, proteins were crosslinked with chromatin using 1% formaldehyde in H9c2 cells with or without treatment. The cells were subsequently sonicated in lysis buffer, and an aliquot of the lysate was used in a PCR reaction. The remaining lysate was cleared with protein G beads. One half of the cleared lysate was incubated with p50 or p65 antibody, while the other half was used as a negative control without the antibody. After reversing the cross-linking, the immuno-complex was digested with proteinase K, and the DNA was purified. DNA was analyzed by PCR with the PicoMax Polymerase (Stratagene, La Jolla, Calif.) and primers specific to the APS3 promoter region.

CC[C@H](C)[C@H](NC(=O)[C@H](Cc1ccc(O)cc1)NC(=O)[C@@H](NC(=O)[C@H](CCCNC(=N)N)NC(=O)[C@@H](N)CC(=O)O)C(C)C)C(=O)N[C@@H](Cc1c[nH]cn1)C(=O)N1CCC[C@H]1C(=O)N[C@@H](Cc1ccccc1)C(=O)O [AngII, angiotensin II]
increase in expression of SCN5A variant E28C (SCN5A variant E28C): 2.9 fold | increase in LUC7L3 expression (qPCR) (LUC7L3 [1]): 1.9 fold | NF-κB binding activity to scn5a promoter probe [2]: increased | decrease in expression of the full length SCN5A transcript [3]: 0.8 fold | expression of sXBP1 (RT-PCR) (sXBP1): no expression upregulation | change in promoter activity of construct with mutated NF-κB binding site (scn5a promoter; APS3-NF-κBm, H9c2, AngII or H2O2): no significant change in activity | depression of scn5a Na+ channel promoter activity (scn5a promoter; APS3 construct with intact NF-κB site, H9c2, 100 nM AngII, 48 h): 33.0% | increase in density of PERK (Western blot) (PERK [4]): 383.2±10.7% | increase in gel density of LUC7L3 (Western blot) (LUC7L3 [5]; 24 h): 2.6 fold | increase in gel density of LUC7L3 (Western blot) (LUC7L3 [5]; 48 h): 2.5 fold | increase in gel density of LUC7L3 (Western blot) (LUC7L3 [5]; 72 h): 2.8 fold | increase in gel density of LUC7L3 (Western blot) (LUC7L3 [5]; 96 h): 2.8 fold | maximum reduction of peak Na+ current (Na+ channel currents): 91.1±9.3% | increase in RBM25 (Western blot quantification) (RBM25 [6]; 24 h): 2.1 fold | increase in RBM25 (Western blot quantification) (RBM25 [6]; 48 h): 2.1 fold | increase in RBM25 (Western blot quantification) (RBM25 [6]; 72 h): 1.9 fold | increase in RBM25 (Western blot quantification) (RBM25 [6]; 96 h): 2.0 fold | reduction in scn5a mRNA abundance [7]: 49.0% | increase in RBM25 expression (qPCR) (RBM25 [8]): 2.1 fold | reduction in scn5a mRNA abundance [9]: 47.3% | increase in expression of PERK (RT-PCR) (PERK [10]): 14.2±0.6 fold | induction of major UPR components [11]: could induce major UPR components | increase in expression of SCN5A variant E28D (SCN5A variant E28D): 4.3 fold | NF-κB subunit binding on the cardiac Na+ channel promoter [12]: formation of the complete p50-p65 NF-κB heterodimer
